The list does not hold the whole screen: it gathers tests that were run many times, whatever their T/C, doses with no T/C, and many T/C values between a quarter and a half above the control. Further doses and runs are listed elsewhere. T/C is the treated group as % of the vehicle group. Some doses have a count of surviving animals in place of a T/C: the source files T/C as zero there, which appears to mark a toxic dose or a test without result, not a measured value. Some survivor counts are full or nearly so, which does not show that the dose was tolerated: survival well below the control is almost never listed, so the zero probably covers shortened survival too. Survivors were counted at the toxicity check, usually on the fifth day, unless a day is given; later deaths do not show. Schedules are NCI's codes, read here as Q, the interval in days (D) or hours (H), X, the number of doses. Some schedule codes hold Z or #, which are not explained here. Some entries hold several experiments; the results are listed from low to high. Where survival is the endpoint, this PubChem deposit counts one and a half times the control or more as active, and values a quarter to a half above the control carry no call in these data; other NCI protocols may use other cut-offs.
Test system: P335 leukemia ip, BDF1 mice, survival T/C %
Assay: NCI In Vivo Anticancer Drug Screen. Data for tumor model P335 Leukemia (intraperitoneal) in B6D2F1 (BDF1) mice
Conditions: T/C endpoint: mean survival time, schedule: Q01DX Z (ip), higher T/C = longer survival
Experimental: The antitumor activity of compounds was measured in mice bearing transplantable tumors. Survival or tumor size were measured and the results are expressed as the measurement made in the treated group (T) divided by the measurement made in the vehicle treated control group (C). The tumor model used in this assay is P335 Leukemia (intraperitoneal) in B6D2F1 (BDF1) mice

[1] = dose: 0.5 mg/kg/injection, vehicle: carboxymethylcellulose (CMC)
[2] = dose: 1.0 mg/kg/injection, vehicle: carboxymethylcellulose (CMC)
[3] = dose: 2.0 mg/kg/injection, vehicle: carboxymethylcellulose (CMC)
[4] = dose: 62.5 mg/kg/injection, vehicle: carboxymethylcellulose (CMC)
[5] = dose: 125.0 mg/kg/injection, vehicle: carboxymethylcellulose (CMC)
[6] = dose: 250.0 mg/kg/injection, vehicle: carboxymethylcellulose (CMC)
[7] = dose: 500.0 mg/kg/injection, vehicle: carboxymethylcellulose (CMC)

Question: How did the T/C (dose: 375.0 mg/kg/injection, vehicle: other) turn out when `CC(=O)OCC1OC(n2ncc(=O)[nH]c2=O)C(OC(C)=O)C1OC(C)=O` (stereo not drawn) was run?
Answer: Its T/C is 129 % of control.

Question: What about the survivor count (dose: 750.0 mg/kg/injection, vehicle: other) of the same compound?
Answer: Its survivor count is 6 of 6.

Question: And the survivor count (dose: 1500.0 mg/kg/injection, vehicle: other)?
Answer: Its survivor count is 6 of 6.

Question: What does the source list for `CC[C@]1(O)C[C@H]2CN(CCc3c([nH]c4ccccc34)[C@@](C(=O)OC)(c3cc4c(cc3OC)N(C=O)[C@H]3[C@@](O)(C(=O)OC)[C@H](OC(C)=O)[C@]5(CC)C=CCN6CC[C@]43[C@@H]65)C2)C1`?
Answer: survivor count (dose: 0.5 mg/kg/injection, vehicle: water): 2 of 6; survivor count (dose: 1.0 mg/kg/injection, vehicle: water): 1 of 6 and 5 of 6

Question: How did the survivor count (dose: 100.0 mg/kg/injection, vehicle: water) turn out when `C[C@@H]1C[C@@H]([C@H](O)CC2CC(=O)NC(=O)C2)C(=O)[C@@H](C)C1` was run?
Answer: The survivor count was 1 of 6.

Question: And the survivor count (dose: 200.0 mg/kg/injection, vehicle: water)?
Answer: Its survivor count is 0 of 6.

Question: `O=C(Nc1ccc(C2=NCCCN2)cc1)c1ccc(NC(=O)c2ccc(C3=NCCCN3)cc2)cc1` was tested. Which survivor count (dose: 0.25 mg/kg/injection, vehicle: carboxymethylcellulose (CMC)) did it give?
Answer: The survivor count was 0 of 6.

Question: And the survivor count [1]?
Answer: Its survivor count is 4 of 6.

Question: What about the survivor count [2] of the same compound?
Answer: Its survivor count is 1 of 6.

Question: And the T/C [3]?
Answer: Its T/C is 147 % of control.

Question: What about the survivor count (dose: 32.0 mg/kg/injection, vehicle: carboxymethylcellulose (CMC)) of the same compound?
Answer: Its survivor count is 3 of 6.

Question: And the survivor count [4]?
Answer: Its survivor count is 2 of 6.

Question: What about the survivor count [5] of the same compound?
Answer: Its survivor count is 1 of 6.

Question: What about the survivor count [6] of the same compound?
Answer: Its survivor count is 0 of 6.

Question: And the survivor count [7]?
Answer: The survivor count was 0 of 6.

Question: How did the survivor count (dose: 250.0 mg/kg/injection, vehicle: saline) turn out when `CN(C)CC(=O)c1ccc(O)c(O)c1` was run?
Answer: Its survivor count is 6 of 6.

Question: What about the survivor count (dose: 1000.0 mg/kg/injection, vehicle: saline) of the same compound?
Answer: Its survivor count is 1 of 6.

Question: Which T/C (dose: 31.0 micrograms/kg/injection, vehicle: alkali diluted with saline) does the source give for `Nc1nc(N)c2nc(CNc3ccc(C(=O)NC(CCC(=O)O)C(=O)O)cc3)cnc2n1` (stereo not drawn) here?
Answer: Its T/C is 125 % of control.

Question: What about the T/C (dose: 63.0 micrograms/kg/injection, vehicle: alkali diluted with saline) of the same compound?
Answer: The T/C was 132 % of control.

Question: And the T/C (dose: 125.0 micrograms/kg/injection, vehicle: alkali diluted with saline)?
Answer: The T/C was 147 % of control.

Question: What about the survivor count (dose: 250.0 micrograms/kg/injection, vehicle: alkali diluted with saline) of the same compound?
Answer: Its survivor count is 3 of 6.

Question: And the survivor count (dose: 500.0 micrograms/kg/injection, vehicle: alkali diluted with saline)?
Answer: Its survivor count is 4 of 6.

Question: For `C[C@H](N)C(=O)N[C@@H]1[C@H]2C(=C(O)C[C@@H](O)[C@@H]2O)C(=O)O[C@@H]1C`, which T/C (dose: 93.75 mg/kg/injection, vehicle: saline) is on record?
Answer: Its T/C is 138 % of control.

Question: What about the T/C (dose: 1500.0 mg/kg/injection, vehicle: saline) of the same compound?
Answer: Its T/C is 125 % of control.

Question: With `O=CCC(O)C(O)C(O)CO` (stereo not drawn) as the compound, how does the survivor count [4] read?
Answer: Its survivor count is 4 of 6.

Question: And the survivor count [5]?
Answer: Its survivor count is 4 of 6.

Question: What about the survivor count [6] of the same compound?
Answer: The survivor count was 6 of 6.

Question: What about the survivor count [7] of the same compound?
Answer: Its survivor count is 6 of 6.

Question: What does the source list for `Cn1cnc([N+](=O)[O-])c1Sc1nc(N)nc2nc[nH]c12`?
Answer: T/C [1]: 129 % of control; T/C [2]: 129 % of control; T/C [3]: 147 % of control

Question: With `O=c1cn[nH]c(=O)[nH]1` as the compound, how does the survivor count (dose: 1500.0 mg/kg/injection, vehicle: carboxymethylcellulose (CMC)) read?
Answer: The survivor count was 6 of 6.

Reference: PubChem BioAssay AID224 (DTP/NCI, 2004)
